Reference: PubChem BioAssay AID743454 (Peter MacCallum Cancer Centre, 2014)
Test: 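Knock-downs lowering viability or raising caspase 3/7 activity in vorinostat-treated resistant cells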 (primary screen). Cell system: human HCT116-VR colon cancer cells, selected for vorinostat resistance. Reagents: siRNA pool against human genes, 40 nM siRNA pool. Timing: vorinostat for 24 h, read-out about 72 h after transfection. Challenge: vorinostat at 2.5 µM final. Read-out: 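Two measures, CellTiter-Fluor viability and luminescent caspase 3/7 activity, each as fold change against same-plate mock wells, mean of duplicates, then screen-wide robust z-score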. Direction: viability robust z-score: higher = more viable cells than screen typical; caspase robust z-score: higher = more caspase 3/7 activity than screen typical. Call rule: 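Hits are knock-downs in viability class RV1/RV2 or caspase class CA1/CA2, excluding ones that killed cells in the no-drug cell-count arm; hits then retested with single siRNAs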.
Shown is an unselected part of about 18,000 reagents tested. In the full data, 450 (2.5%) were called active. 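Single biological run; no consistent viability z cut-off exists, so the class columns, not z-scores, define the calls.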 The numbers tell different reagents against one gene apart. No sequences are given here.

no.	target gene	reagent no.	viability hit class	caspase hit class	viability robust z-score	caspase robust z-score	activity call
1	MGAT5B	1	no change	no change	0.58	1.57	inactive
2	TMEM216	1	no change	no change	-0.52	2.2	inactive
3	COPZ1	1	no change	no change	-3.11	0.06	inactive
4	GABRR3	1	RV2 (reduced viability)	no change	-2.92	4.1	active
5	NKPD1	1	no change	no change	1.27	-0.38	inactive
6	GPNMB	1	no change	no change	-0.6	0.99	inactive
7	OR5AC2	1	no change	no change	0.45	-0.99	inactive
8	OR14J1	1	no change	no change	0.55	-0.77	inactive
9	PGLYRP3	1	no change	no change	-0.43	0.33	inactive
10	ZNF705A	1	no change	no change	0.13	0.68	inactive
11	PDZD11	1	no change	no change	-0.03	2.67	inactive
12	H2BC17	1	no change	no change	-1.3	2.6	inactive
13	NFYC	1	no change	no change	1.48	1.28	inactive
14	TMEM260	1	no change	no change	1.52	-0.66	inactive
15	ZKSCAN7	1	no change	no change	0.16	-0.72	inactive
16	CDCP2	1	no change	no change	-0.85	1.56	inactive
17	IRF1	1	no change	no change	1.86	-0.36	inactive
18	MTOR	1	no change	no change	-2	2.71	inactive
19	RPGR	1	no change	no change	-0.24	-0.6	inactive
20	RAPH1	1	no change	no change	-0.6	-0.52	inactive
21	NDUFA5	1	no change	no change	-1.15	0.36	inactive
22	PIP5K1C	1	no change	no change	1	-0.85	inactive
23	STAB1	1	no change	no change	-1.29	2.4	inactive
24	DEFB127	1	no change	no change	-0.74	0.8	inactive
25	HS3ST1	1	no change	no change	1.7	-0.95	inactive
26	IFNLR1	1	no change	no change	-0.98	0.88	inactive
27	TSPAN17	1	no change	no change	-0.44	0.49	inactive
28	NKX3-2	1	no change	no change	0.66	2.68	inactive
29	SLC45A1	1	no change	no change	1.07	0.3	inactive
30	AGBL4	1	no change	no change	0.86	-0.38	inactive
31	MSH2	1	no change	no change	0.05	0.82	inactive
32	GON7	1	no change	no change	-0.72	-0.46	inactive
33	TMEM184B	1	no change	no change	1.01	-0.64	inactive
34	SIGLEC5	1	no change	no change	0.26	-0.57	inactive
35	KIF19	1	no change	no change	0.45	1.4	inactive
36	CD109	1	no change	no change	-1.07	0.12	inactive
37	YIPF5	1	no change	no change	0.98	-0.88	inactive
38	SPANXN1	1	no change	no change	0.63	-0.46	inactive
39	SELENON	1	no change	no change	-0.23	-0.19	inactive
40	MIA2	1	no change	no change	0.11	-1.38	inactive
41	MIA2	2	no change	no change	1.04	-0.56	inactive
42	LRRC56	1	no change	no change	-0.06	-0.88	inactive
43	IFIT1	1	no change	no change	0.8	0.51	inactive
44	SCAF4	1	no change	no change	0.06	-0.68	inactive
45	C1QL3	1	no change	no change	-0.46	-0.09	inactive
46	TMEM185A	1	no change	no change	-1.01	1.12	inactive
47	SEM1	1	no change	no change	-1.27	2.05	inactive
48	RASD2	1	no change	no change	-0.31	5.08	inactive
49	ATP6V1B2	1	no change	CA2 (caspase activation)	-1.6	7.62	active
50	CPOX	1	no change	no change	0.84	-0.09	inactive
51	MAP7D2	1	no change	no change	1.84	-0.52	inactive
52	NDUFA8	1	no change	no change	-0.62	2.93	inactive
53	OR6K6	1	no change	no change	-0.4	-0.27	inactive
54	NUP210	1	no change	no change	0.68	-0.54	inactive
55	HSPA1L	1	no change	no change	0.72	0.55	inactive
56	CRAMP1	1	no change	no change	0.86	-0.56	inactive
57	LBH	1	no change	no change	1.13	-0.4	inactive

Reagents listed above marked active, once more:
target gene	reagent no.	viability hit class	caspase hit class	viability robust z-score	caspase robust z-score	activity call
GABRR3	1	RV2 (reduced viability)	no change	-2.92	4.1	active
ATP6V1B2	1	no change	CA2 (caspase activation)	-1.6	7.62	active
